Test results published in PubChem BioAssay AID1508600 (Functional Genomics Laboratory (NCATS/FGL), 2020).
Screen size: about 53,000 sequences; about 3,700 (7%) were called active.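 Rule for the calls: active = gene knockdowns whose robust z-score for IL-1 alpha signal is at least 2 or at most -2, so actives lie on both sides; inactive = the rest.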 This is one part of the list.

test: Components of the Cytosolic LPS Sensing Pathway: Gene Identification via Genome-wide siRNA Screen; conditions: RAW264.7 macrophages, IL-1a HTRF, actives lie on both sides, screened at 100 nM (by protocol), cells primed 5 h with Pam3CSK4 first;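 note: robust z of the log signal after scaling to non-targeting control siRNA wells of the plate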
Procedure, shortened: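 Using IL-1a HTRF as read-out, the screen measured release from RAW264.7 cells after 48h siRNA knockdown (100 nM), 5 h Pam3CSK4 priming and 24 h cytosolic LipidA. Values were expressed relative to negative-control wells as robust z-scores.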

Sequence	z-score
GGUUGACCUGUGCUUUUCGTT against Arr3	inactive: -0.625
GGAUCAGGAAGUAAACUUCTT against S100a6	active: 2.57
CCCGACGACUUAAAAUGGATT against Thap2	inactive: -1.44
GGAUGAGAAUGGCACCAGUTT against Prima1	inactive: -1.4
GCAAGUUGUCCUCACCUGUTT against Mynn	inactive: 1.52
CGUCUACUUAUCAAUAUGATT against Rbm5	inactive: 0.112
GGACUUAACUGGACAAAAUTT against Nlrc4	inactive: -0.118
GCUUUUGAUAACUGCCUGGTT against Lce3f	inactive: -0.385
GCAGAACCGCCAACCAACATT against Smarcc2	active: -2.03
GCAUAAACAGGCAUUAAAUTT against Sav1	inactive: 0.464
GGAUCAGGAAGGAUUCGGATT against Zfp84	inactive: -1.01
GCAGGAUUCAUGUAAAUAGTT against Pacs2	inactive: -1.79
CCCAGGUGAUUCUGAUAUUTT against Rpl30	inactive: 0.534
GGGUGAUGUGUUUAUUAAGTT against Crp	inactive: 0.234
GCAAUGGCAACAGAGAGGATT against Cbarp	inactive: 0.288
GGCAGUGCCAAUGAACAAGTT against Elob	inactive: 0.591
GGUAGAAAGUAUGGCUCCATT against Ppp1r9a	inactive: -0.392
CCUUUGCUCCACCUACACATT against Zcwpw1	inactive: 0.892
GGACAAGAGGUACACAAACTT against Eif3d	active: 2.83
AAGGACGAUCCUGAUUUCATT against Gm5431	inactive: 0.828
GGUUGGUCCUGAUGAAGAATT against Tnnt2	inactive: -0.299
GGAGAUGAUCGACGAAGUATT against Tnnc1	inactive: 0.914

No new results follow: entries from further up.
Sequence	z-score
GGUUGACCUGUGCUUUUCGTT against Arr3	inactive: -0.625
GGAUCAGGAAGUAAACUUCTT against S100a6	active: 2.57
CCCGACGACUUAAAAUGGATT against Thap2	inactive: -1.44
GGAUGAGAAUGGCACCAGUTT against Prima1	inactive: -1.4
GCAAGUUGUCCUCACCUGUTT against Mynn	inactive: 1.52
CGUCUACUUAUCAAUAUGATT against Rbm5	inactive: 0.112

Later entries:

Sequence	z-score
CCCUGGUCGUCAUUUUCAATT against Morc2b	inactive: 1.54
GGAAGGCUCAGAGAAAUAATT against Ssr4	inactive: -0.173
GCUUUUACGGGAGAAAACUTT against Xbp1	inactive: -0.395
ACACUGGAGUGAACAACGUTT against Vmo1	inactive: 1.48
CCAGAUUUGAGCGAAACCUTT against Myo15	inactive: -0.287
GGACAAGAUAGGAGGAGACTT against Abhd16a	inactive: -0.776
GGCCUGAAUGACACCUUUATT against Anp32e	inactive: 0.211
GGUUGCUACUUUUGGCAGGTT against Dusp7	inactive: -0.535
GGCAGAACGAACAGAGUUUTT against Nipsnap3b	inactive: 0.218
GCUACUCUCGCCUGUUACATT against Dcaf12	inactive: 0.0053
GGCCAAACUGGAUUACUUATT against Tmprss11c	inactive: 1.26
GCUGUAAUGACCAGUGUUUTT against Gpam	inactive: 0.887
CCCAGUGAAGCAUUUUUUATT against Rpp30	inactive: -1.63
GGGACAAAGUACCUCUCCATT against Proser3	inactive: -1.45
GGCAUUACAUUUCAAUGAATT against Serpinb12	inactive: -0.71
GCUUUAAUUCACCAUUAGGTT against Pax9	inactive: 0.658
GCUGAUGGUCAGAGGAAGATT against Vmn1r177	inactive: 0.688
GGGCAGUUUUACAAAUGUUTT against Fbxw8	inactive: 0.985
GGUGUUUUCCAACAUCCUCTT against Ccrl2	active: 3.06
GGUUUCAAGUGAUGAAUAGTT against Ntf5	inactive: 0.433
GCCACAUAAGGUUGUUCCCTT against Gamt	active: 2.9
GGAGGCUAUUACUGUUUAUTT against Fam107b	inactive: 0.601

Sequence	z-score
GUUCUUCUCUGUUGGUGCUTT against Vmn1r24	active: -2.12
GCACUGUGAGUGGAUACUUTT against Slc5a3	inactive: 0.13
GGCAAGAUCACCUUCUGCATT against Psmd4	inactive: 0.152
GAUGCACUUCGAAUCAGGGTT against Uchl3	inactive: -0.082
CCUUCCCUUAAAUGGAACCTT against Slc9a1	inactive: 1.63
GGACACUAUGACGGAAGUATT against Apoe	inactive: -1.13
GGGAAAAUGCCUAUCGAUUTT against Meis1	inactive: 0.834
GGUCACUGUUUCCCUAGACTT against Prss33	inactive: -1.57
AUAAAGAUGUCAGUGAUGCTT against Olfr951	inactive: -1.43
GGUUAAAAUGCCAUAACAATT against Ksr1	inactive: -1.26
GGACAAAAGAUUCUUCAUCTT against Map1b	active: 2.93
GGAAAAUUUAUGCAGUGGATT against Carm1	inactive: -0.264
GAUGCCCAAUGUGCAAAUGTT against Defa-rs12	inactive: 1.06
CCAGAUGCUAAAUCACUACTT against Ttll8	inactive: -0.127
GGUCUUUUUUCCUUUGUUCTT against Ogg1	inactive: 0.187
GGAUCGUGAUCCAUCAGAGTT against Pcgf3	inactive: -0.152
GCAUCUACCACACAAUGGCTT against Wdfy1	inactive: 0.787
GCUCAAAACGCACGUGAAGTT against Get1	inactive: 0.17
GGGAAAUGAACCUCUCUGATT against Pbld2	inactive: -0.916
GCUGCCUCUAUUUCAGUUCTT against Fbxo27	inactive: -0.253
GGUCAUGUCCGAGUACAACTT against Stx1a	inactive: 1.21
GGAAUAUUUUGCUUGUGUGTT against Dnmt3a	inactive: -0.925

Sequence	z-score
GGAAACUGCAUUCAAGCCATT against Apod	inactive: -0.191
GCUCUCUGCACCAGAGUAUTT against Mapk15	inactive: -0.993
GCAAGUAGUUAGCUCAGGGTT against Gabpb1	inactive: -0.752
GGUGGUAAUAGACAAACACTT against Ctdnep1	inactive: -0.749
GUUCUCAAGUAUCCCAGGCTT against 1110006O24Rik	inactive: -0.661
GCGAACCCAUCAGUGAAGUTT against Dpp10	inactive: 1.6
GGGUGAGAUAGGAAAGUGGTT against Rab43	inactive: -0.111
GGAAUUUGGAGCAAUUGGATT against Efcab14	inactive: -0.0212
GCUGGAUCAGCUAGCAAAATT against Cpa1	inactive: 0.0912
GGUUGAGAAGAAGAAUGGATT against Thap4	inactive: -0.382
GGACUAUUUGGAAACCUCCTT against Olfr1366	inactive: -0.304
GGAAAUUGUUGUUUCCCGUTT against Sf3b3	inactive: -1.45
GGAAAAUACACAGAGAUAUTT against Stk3	inactive: -0.389
CGAAACCUCUAAGAAGAUATT against Pole	inactive: -0.264
CGCCUUGCUAGUUUAAUGATT against Matr3	inactive: 0.905
GGAUAACCGUAUUAAUUUCTT against Gm2a	inactive: 0.709
GCUCUAAGGAACAUGUAAATT against Recql	inactive: -0.122
GGAAAUCAUAUAUGCAAAGTT against Dpp4	inactive: -0.366
GGCUGUCCAACAAGCAGAGTT against Plekhm3	inactive: 0.163
GGUAAUUUCUUACCAAGGATT against Gabpa	inactive: -0.912
GGAUGUUGUUUGGGCUUUUTT against Olfr140	inactive: 0.332
CCUUUAGUGAGAUUAAGCATT against Hectd3	inactive: 0.379

Sequence	z-score
GGAAAUCCUGGAAAACAAATT against Samm50	inactive: -1.14
GCAUUAAGGCACAAACAAATT against Myo1b	inactive: -0.246
GCCAGCUAAAAUAGAAAAATT against Vldlr	inactive: -0.304
GCCGGAUGUUCUUUGGCAATT against Mrto4	inactive: 0.534
GGUGGUGUAAUCAAAUGUATT against Chmp3	inactive: 1.32
CGAACUUCUUUAUCAGAACTT against Mrgpra4	inactive: 1.02
GGCACCCUUGAACUCUACUTT against 4930404N11Rik	inactive: 0.49
GGAAGUUUAGAGCAUGCCATT against Tmem134	inactive: -0.792
GGAUCACCAUUGCUUGACUTT against Galt	inactive: 0.117
CGACUUUCUUGUGGAGUGGTT against Nanos1	inactive: -0.207
CCGUGUUAGAGUUUUCGACTT against Top3b	inactive: 1.2
GGACUCAGCAAAGAAAGAGTT against Eea1	inactive: -1.91
GCUGUACAAAACAUAAGAATT against Bcl6	inactive: 1.11
CCCAGAAACGUGACACUCUTT against Ifnlr1	inactive: -1.95
GGGAAAAGGGCUUAAAUGCTT against Tmem198	inactive: 0.153
GCCACUUGGAAGAUCUAUGTT against Kcnq1	inactive: -0.474
GCAUAUGUCUGUGGAAUGUTT against Olfr1505	inactive: -0.111
CCCUCCUAGAUACAUUUUGTT against Ifna16	inactive: 0.00677
GGAGAAGUACAAUAAUGACTT against Cacnb1	inactive: -0.297

Quoted at random: four records from the list, in no set order.
Sequence	z-score
GGCCUGAAUGACACCUUUATT against Anp32e	inactive: 0.211
GGGAAAUGAACCUCUCUGATT against Pbld2	inactive: -0.916
CCGUGUUAGAGUUUUCGACTT against Top3b	inactive: 1.2
GGUUUCAAGUGAUGAAUAGTT against Ntf5	inactive: 0.433
